Measured values from the supplement of paper PMC6411743.
± gives the standard deviation of the averaged measurements. Only a part is listed here, and it is no random draw.

By UniProt entry, the sequences of proteins in these tests, tags left out. Where a name states a change or a piece, a line headed by the entry shows the natural chain unless it says otherwise.
UniProt O00483, whole entry: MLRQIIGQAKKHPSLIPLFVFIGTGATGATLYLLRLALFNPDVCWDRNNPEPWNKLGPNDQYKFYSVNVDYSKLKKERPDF
UniProt O43422: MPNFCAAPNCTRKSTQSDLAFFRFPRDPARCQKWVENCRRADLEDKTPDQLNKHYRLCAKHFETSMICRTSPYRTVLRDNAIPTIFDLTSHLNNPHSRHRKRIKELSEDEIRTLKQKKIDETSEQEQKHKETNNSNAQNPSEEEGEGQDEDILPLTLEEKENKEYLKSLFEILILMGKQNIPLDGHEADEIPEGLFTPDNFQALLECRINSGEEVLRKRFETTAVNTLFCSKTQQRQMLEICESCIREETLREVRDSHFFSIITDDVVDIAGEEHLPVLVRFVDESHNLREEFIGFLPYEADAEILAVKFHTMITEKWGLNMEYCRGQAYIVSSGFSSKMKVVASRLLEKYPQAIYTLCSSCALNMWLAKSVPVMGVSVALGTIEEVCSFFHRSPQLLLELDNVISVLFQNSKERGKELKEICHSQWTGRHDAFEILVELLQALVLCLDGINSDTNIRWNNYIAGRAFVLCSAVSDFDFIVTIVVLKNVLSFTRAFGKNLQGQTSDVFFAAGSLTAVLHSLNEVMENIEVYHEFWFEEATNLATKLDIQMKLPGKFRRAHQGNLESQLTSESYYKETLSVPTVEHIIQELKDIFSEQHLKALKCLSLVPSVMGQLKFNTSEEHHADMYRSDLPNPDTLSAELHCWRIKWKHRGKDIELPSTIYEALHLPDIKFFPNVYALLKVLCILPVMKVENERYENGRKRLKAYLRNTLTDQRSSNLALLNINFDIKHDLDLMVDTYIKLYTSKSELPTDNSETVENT
UniProt O14745: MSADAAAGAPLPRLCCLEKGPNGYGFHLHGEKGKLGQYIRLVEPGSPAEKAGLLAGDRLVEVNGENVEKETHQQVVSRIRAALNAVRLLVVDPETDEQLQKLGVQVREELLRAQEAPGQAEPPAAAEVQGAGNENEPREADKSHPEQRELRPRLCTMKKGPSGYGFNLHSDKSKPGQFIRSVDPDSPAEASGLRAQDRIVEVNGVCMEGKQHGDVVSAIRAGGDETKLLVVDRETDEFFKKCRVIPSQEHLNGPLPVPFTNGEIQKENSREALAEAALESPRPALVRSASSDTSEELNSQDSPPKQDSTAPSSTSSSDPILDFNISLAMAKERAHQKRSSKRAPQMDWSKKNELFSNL
UniProt O43150: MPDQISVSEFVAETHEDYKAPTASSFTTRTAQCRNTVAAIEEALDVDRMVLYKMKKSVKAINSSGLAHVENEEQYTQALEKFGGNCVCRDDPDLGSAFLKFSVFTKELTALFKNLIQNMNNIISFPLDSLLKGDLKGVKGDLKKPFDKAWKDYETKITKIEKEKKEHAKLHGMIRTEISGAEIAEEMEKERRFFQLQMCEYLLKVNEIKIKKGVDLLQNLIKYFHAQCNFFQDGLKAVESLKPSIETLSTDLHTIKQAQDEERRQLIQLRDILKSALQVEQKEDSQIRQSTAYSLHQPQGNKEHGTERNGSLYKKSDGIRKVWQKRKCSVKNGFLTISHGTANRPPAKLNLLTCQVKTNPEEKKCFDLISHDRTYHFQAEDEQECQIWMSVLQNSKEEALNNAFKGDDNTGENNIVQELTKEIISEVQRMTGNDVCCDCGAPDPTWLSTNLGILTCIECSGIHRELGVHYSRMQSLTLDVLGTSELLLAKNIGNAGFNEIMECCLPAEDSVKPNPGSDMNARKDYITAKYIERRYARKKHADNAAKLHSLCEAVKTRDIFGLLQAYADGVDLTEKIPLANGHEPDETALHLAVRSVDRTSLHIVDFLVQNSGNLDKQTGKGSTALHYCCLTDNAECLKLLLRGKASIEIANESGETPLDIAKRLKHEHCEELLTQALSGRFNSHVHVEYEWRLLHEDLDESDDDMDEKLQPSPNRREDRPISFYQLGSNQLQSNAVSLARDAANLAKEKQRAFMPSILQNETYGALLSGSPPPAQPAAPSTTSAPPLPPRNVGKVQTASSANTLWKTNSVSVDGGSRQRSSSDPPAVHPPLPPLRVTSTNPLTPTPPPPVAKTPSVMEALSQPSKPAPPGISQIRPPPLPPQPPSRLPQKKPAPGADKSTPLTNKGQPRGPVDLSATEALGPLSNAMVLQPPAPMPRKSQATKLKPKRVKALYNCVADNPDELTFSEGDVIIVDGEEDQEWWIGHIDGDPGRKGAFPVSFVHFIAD
UniProt O43765: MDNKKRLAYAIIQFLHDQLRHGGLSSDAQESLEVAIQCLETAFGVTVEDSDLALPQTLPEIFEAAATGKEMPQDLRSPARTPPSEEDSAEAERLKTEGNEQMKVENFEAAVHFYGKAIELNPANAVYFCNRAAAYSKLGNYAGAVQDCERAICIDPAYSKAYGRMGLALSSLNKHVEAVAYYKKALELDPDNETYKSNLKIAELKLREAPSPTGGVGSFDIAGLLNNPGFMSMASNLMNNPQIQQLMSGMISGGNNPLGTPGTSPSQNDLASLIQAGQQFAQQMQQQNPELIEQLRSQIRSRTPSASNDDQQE
UniProt O75264: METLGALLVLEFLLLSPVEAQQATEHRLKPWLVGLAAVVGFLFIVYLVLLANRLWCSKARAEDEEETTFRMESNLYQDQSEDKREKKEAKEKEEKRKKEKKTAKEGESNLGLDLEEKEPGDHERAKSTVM
UniProt O14545: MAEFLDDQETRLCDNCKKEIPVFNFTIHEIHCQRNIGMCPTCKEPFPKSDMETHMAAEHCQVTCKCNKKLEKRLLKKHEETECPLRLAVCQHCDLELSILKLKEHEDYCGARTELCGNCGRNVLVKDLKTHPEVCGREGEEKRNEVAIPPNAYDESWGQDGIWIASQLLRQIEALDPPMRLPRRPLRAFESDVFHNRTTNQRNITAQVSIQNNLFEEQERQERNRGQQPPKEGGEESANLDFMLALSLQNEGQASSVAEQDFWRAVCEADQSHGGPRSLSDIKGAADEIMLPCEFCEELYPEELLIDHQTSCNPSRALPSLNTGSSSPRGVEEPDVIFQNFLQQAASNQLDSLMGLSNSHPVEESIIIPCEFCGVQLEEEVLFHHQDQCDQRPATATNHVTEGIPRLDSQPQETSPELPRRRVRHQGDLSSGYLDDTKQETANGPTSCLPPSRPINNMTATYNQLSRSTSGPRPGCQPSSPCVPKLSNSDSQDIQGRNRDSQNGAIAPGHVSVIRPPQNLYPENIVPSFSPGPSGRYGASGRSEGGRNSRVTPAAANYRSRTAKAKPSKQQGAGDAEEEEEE
UniProt Q9UI14, whole entry: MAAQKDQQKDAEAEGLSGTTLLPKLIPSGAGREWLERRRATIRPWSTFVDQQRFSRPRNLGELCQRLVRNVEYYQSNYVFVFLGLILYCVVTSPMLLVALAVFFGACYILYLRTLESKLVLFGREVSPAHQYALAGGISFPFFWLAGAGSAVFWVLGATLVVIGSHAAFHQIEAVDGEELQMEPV
UniProt O15169, whole entry: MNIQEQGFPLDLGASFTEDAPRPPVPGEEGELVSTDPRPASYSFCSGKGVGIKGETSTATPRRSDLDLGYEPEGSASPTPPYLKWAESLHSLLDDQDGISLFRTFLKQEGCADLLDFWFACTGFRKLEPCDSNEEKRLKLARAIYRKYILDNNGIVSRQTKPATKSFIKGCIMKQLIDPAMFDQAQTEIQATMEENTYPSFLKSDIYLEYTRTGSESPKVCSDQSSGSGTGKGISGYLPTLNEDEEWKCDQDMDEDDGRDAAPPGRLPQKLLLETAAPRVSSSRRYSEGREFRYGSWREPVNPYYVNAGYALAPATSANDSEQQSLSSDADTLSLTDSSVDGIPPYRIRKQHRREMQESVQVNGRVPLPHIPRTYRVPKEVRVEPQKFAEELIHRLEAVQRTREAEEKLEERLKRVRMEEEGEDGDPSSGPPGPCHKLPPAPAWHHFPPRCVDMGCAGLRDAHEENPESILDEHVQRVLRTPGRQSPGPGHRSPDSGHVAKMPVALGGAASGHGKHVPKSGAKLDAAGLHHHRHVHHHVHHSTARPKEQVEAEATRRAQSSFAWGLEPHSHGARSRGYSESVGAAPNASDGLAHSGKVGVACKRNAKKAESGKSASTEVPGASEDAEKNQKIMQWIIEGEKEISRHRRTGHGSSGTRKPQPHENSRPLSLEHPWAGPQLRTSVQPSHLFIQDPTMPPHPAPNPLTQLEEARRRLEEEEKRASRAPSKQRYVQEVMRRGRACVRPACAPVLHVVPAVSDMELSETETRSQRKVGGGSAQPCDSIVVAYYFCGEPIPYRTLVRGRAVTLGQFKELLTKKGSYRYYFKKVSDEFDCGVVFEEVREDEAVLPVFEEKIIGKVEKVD
UniProt O15371, whole entry: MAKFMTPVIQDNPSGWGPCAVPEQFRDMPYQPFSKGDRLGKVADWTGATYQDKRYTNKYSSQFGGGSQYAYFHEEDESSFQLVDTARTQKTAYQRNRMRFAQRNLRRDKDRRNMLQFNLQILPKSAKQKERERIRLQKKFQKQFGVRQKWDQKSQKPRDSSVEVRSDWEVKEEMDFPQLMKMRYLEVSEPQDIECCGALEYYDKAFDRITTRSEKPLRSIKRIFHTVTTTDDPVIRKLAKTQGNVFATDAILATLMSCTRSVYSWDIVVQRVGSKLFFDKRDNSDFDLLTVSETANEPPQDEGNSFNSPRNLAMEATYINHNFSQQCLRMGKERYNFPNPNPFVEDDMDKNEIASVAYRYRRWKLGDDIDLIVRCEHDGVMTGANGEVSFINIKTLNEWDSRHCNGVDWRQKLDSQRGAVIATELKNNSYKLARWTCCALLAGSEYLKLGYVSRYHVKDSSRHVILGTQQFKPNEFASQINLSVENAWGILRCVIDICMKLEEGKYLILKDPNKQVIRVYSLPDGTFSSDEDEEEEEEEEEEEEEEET
UniProt Q8N2G8: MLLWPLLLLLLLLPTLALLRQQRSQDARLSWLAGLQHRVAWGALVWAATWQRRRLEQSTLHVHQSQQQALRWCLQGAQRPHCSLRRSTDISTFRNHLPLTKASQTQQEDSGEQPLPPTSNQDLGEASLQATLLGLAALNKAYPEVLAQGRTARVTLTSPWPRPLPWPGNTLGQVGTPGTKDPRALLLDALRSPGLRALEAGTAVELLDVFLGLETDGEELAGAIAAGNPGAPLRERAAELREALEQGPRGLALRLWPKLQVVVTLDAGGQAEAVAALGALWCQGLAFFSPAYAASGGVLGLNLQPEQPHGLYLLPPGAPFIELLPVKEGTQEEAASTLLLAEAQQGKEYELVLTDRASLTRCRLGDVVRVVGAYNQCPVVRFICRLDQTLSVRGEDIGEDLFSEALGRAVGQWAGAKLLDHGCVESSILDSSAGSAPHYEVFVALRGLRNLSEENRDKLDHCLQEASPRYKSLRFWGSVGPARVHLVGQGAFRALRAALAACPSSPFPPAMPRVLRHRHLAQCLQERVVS
UniProt Q9NX61: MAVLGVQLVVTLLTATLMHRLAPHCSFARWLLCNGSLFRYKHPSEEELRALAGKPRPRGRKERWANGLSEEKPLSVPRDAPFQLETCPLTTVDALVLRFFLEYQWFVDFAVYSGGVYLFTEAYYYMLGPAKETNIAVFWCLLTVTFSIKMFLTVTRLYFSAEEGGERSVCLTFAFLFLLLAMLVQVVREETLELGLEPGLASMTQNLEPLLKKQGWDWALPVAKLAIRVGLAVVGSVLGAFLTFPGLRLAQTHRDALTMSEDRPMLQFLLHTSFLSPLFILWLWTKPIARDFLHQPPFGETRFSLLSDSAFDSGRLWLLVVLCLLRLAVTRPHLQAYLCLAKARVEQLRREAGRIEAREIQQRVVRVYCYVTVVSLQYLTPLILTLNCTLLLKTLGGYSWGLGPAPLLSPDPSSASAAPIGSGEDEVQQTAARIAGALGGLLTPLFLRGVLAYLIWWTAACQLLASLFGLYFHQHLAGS
UniProt O14735: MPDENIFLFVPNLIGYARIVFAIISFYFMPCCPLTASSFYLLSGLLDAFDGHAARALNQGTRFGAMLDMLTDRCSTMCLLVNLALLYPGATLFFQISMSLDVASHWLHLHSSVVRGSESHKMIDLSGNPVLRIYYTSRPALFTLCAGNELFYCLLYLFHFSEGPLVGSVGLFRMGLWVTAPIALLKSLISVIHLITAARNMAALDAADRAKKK
UniProt Q16740, whole entry: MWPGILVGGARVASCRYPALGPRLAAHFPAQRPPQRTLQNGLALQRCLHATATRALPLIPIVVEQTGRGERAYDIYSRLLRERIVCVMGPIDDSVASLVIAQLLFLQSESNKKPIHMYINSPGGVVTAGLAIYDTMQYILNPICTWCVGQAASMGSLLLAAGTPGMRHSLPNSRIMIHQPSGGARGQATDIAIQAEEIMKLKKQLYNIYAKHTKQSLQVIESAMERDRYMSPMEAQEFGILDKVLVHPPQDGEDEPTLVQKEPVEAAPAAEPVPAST
UniProt Q96AB3: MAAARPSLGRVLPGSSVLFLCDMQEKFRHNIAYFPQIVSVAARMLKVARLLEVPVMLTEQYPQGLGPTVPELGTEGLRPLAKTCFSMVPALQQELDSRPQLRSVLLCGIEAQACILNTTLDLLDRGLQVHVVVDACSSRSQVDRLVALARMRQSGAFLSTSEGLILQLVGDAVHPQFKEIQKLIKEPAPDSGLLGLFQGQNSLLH

Compound: Nc1ncnc2c1ncn2[C@@H]1O[C@H](COP(=O)(O)OP(=O)(O)NP(=O)(O)O)[C@@H](O)[C@H]1O [adenylyl imidodiphosphate]
Assay: NP40-soluble protein abundance relative to vehicle (solubility fold change) (ratio); higher = more soluble protein in presence of AMP-PNP
Outline: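 In three independent experiments, Jurkat crude lysate made by Dounce homogenisation was treated for 10 min at room temperature and then 3 min at 37 °C with eight concentrations ranging from 0.1 to 10 mM. It was then solubilised with 0.8% NP40 plus benzonase for 60 min at 4 °C and ultracentrifuged. The supernatant was TMT-labelled for LC-MS/MS, and each value is the fold change against the detergent-processed vehicle for the same replicate, using vsn-normalised intensities.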

Target	NP40-soluble protein abundance (concentration: 1mM)	NP40-soluble protein abundance (concentration: 2mM)	NP40-soluble protein abundance (concentration: 4mM)	NP40-soluble protein abundance (concentration: 6mM)	NP40-soluble protein abundance (concentration: 8mM)	NP40-soluble protein abundance (concentration: 10mM)
NDUFA4 (UniProt O00483)	0.948 ± 0.073	0.914 ± 0.038	0.925 ± 0.038	0.929 ± 0.059	0.962 ± 0.023	0.906 ± 0.045
UniProt O43303 and related entries	0.988 ± 0.029	1.016 ± 0.0033	1.01 ± 0.029	0.966 ± 0.018	0.943 ± 0.014	0.98 ± 0.024
OGT (UniProt O15294)	0.98 ± 0.021	0.966 ± 0.026	1 ± 0.035	0.968 ± 0.029	0.959 ± 0.027	0.966 ± 0.036
UniProt O00592 and related entries	0.987 ± 0.036	1.04 ± 0.11	0.991 ± 0.067	0.987 ± 0.044	0.981 ± 0.064	1 ± 0.057
UniProt O43422	1.01 ± 0.041	0.946 ± 0.04	0.945 ± 0.037	0.931 ± 0.013	0.8954 ± 0.0077	0.904 ± 0.033
UniProt O00139 and related entries	1.1 ± 0.023	1.07 ± 0.095	1.08 ± 0.023	1.05 ± 0.029	1.05 ± 0.02	1.03 ± 0.012
SPTLC1 (UniProt O15269)	0.99 ± 0.012	0.952 ± 0.072	0.988 ± 0.027	1.02 ± 0.037	1.01 ± 0.036	0.993 ± 0.019
GIPC1 (UniProt O14908)	1.01 ± 0.04	0.99 ± 0.01	1.02 ± 0.037	1.01 ± 0.017	0.994 ± 0.04	0.985 ± 0.035
SLC9A3R1 (UniProt O14745)	1.014 ± 0.0091	1.05 ± 0.074	0.983 ± 0.031	0.966 ± 0.018	0.957 ± 0.011	0.929 ± 0.049
UniProt O43903	1.05 ± 0.0042	1.07 ± 0.041	1.04 ± 0.079	0.999 ± 0.025	1.02 ± 0.05	1.01 ± 0.043
UniProt O43150 and related entries	0.98 ± 0.012	0.993 ± 0.011	0.972 ± 0.034	0.949 ± 0.024	0.933 ± 0.014	0.944 ± 0.045
ARPC1B (UniProt O15143)	0.985 ± 0.027	0.96 ± 0.01	0.964 ± 0.014	0.988 ± 0.022	0.974 ± 0.026	0.951 ± 0.029
UniProt O00506	1.05 ± 0.02	1.07 ± 0.01	1.08 ± 0.032	1.01 ± 0.04	1.011 ± 0.0097	1.01 ± 0.028
UniProt O15391	1.1 ± 0.025	1.1 ± 0.018	1.09 ± 0.033	1.06 ± 0.013	1.1 ± 0.066	1.08 ± 0.075
K7ELL7 and related entries (UniProt P14314)	1.021 ± 0.0066	1.11 ± 0.15	1 ± 0.035	1.02 ± 0.022	1 ± 0.04	0.997 ± 0.039
SGTA (UniProt O43765)	1.03 ± 0.052	1.15 ± 0.079	0.99 ± 0.03	1.01 ± 0.037	0.943 ± 0.054	1.02 ± 0.085
MPHOSPH10 (UniProt O00566)	0.974 ± 0.027	1.07 ± 0.14	0.997 ± 0.089	1.12 ± 0.096	1.06 ± 0.086	1.11 ± 0.13
B4GAT1 (UniProt O43505)	0.991 ± 0.041	0.991 ± 0.031	1.02 ± 0.053	1 ± 0.024	0.995 ± 0.035	1.01 ± 0.03
K7EKM7 (UniProt O75264)	1 ± 0.035	0.988 ± 0.015	1 ± 0.038	0.971 ± 0.032	0.9753 ± 0.0085	1.01 ± 0.014
K7EJ91 and related entries (UniProt Q8N0Y2)	1.01 ± 0.014	1.021 ± 0.0019	1.03 ± 0.017	1.02 ± 0.03	0.9948 ± 0.0077	1.03 ± 0.018

Target	NP40-soluble protein abundance (concentration: 1mM)	NP40-soluble protein abundance (concentration: 2mM)	NP40-soluble protein abundance (concentration: 4mM)	NP40-soluble protein abundance (concentration: 6mM)	NP40-soluble protein abundance (concentration: 8mM)	NP40-soluble protein abundance (concentration: 10mM)
K7ER90 and related entries (UniProt O75821)	1.02 ± 0.075	1.1 ± 0.077	1.11 ± 0.095	1.24 ± 0.045	1.27 ± 0.074	1.42 ± 0.14
UniProt O00522 and related entries	1.01 ± 0.036	0.979 ± 0.064	0.994 ± 0.064	0.967 ± 0.033	0.985 ± 0.037	0.987 ± 0.059
TOR1B (UniProt O14657)	0.961 ± 0.061	0.959 ± 0.044	0.968 ± 0.039	1 ± 0.083	0.999 ± 0.085	1.02 ± 0.08
TOR1A (UniProt O14656)	1 ± 0.051	0.97 ± 0.034	1.03 ± 0.059	1.07 ± 0.11	1.11 ± 0.087	1.09 ± 0.086
TRAFD1 (UniProt O14545)	1.012 ± 0.0023	1.03 ± 0.013	0.996 ± 0.035	0.97 ± 0.019	0.99 ± 0.041	0.96 ± 0.038
UBFD1 (UniProt O14562)	1.007 ± 0.0026	1.05 ± 0.065	1 ± 0.05	1.02 ± 0.026	0.989 ± 0.042	0.998 ± 0.072
UniProt O14920	0.997 ± 0.018	0.977 ± 0.026	1.02 ± 0.015	1.01 ± 0.027	1.02 ± 0.018	0.996 ± 0.029
PHGDH (UniProt O43175)	0.969 ± 0.066	0.911 ± 0.086	0.89 ± 0.083	0.894 ± 0.12	0.963 ± 0.049	0.932 ± 0.048
UniProt O14787-2	1.03 ± 0.024	1.05 ± 0.037	1.04 ± 0.039	1.02 ± 0.021	1.02 ± 0.041	1.03 ± 0.038
M0R3D4 and related entries (UniProt Q9UI14)	0.961 ± 0.048	0.957 ± 0.042	0.946 ± 0.038	1.07 ± 0.05	1.07 ± 0.037	1.05 ± 0.021
L0R819 (UniProt Q9NWL6)	1.04 ± 0.017	1.03 ± 0.074	1.01 ± 0.026	0.996 ± 0.089	0.972 ± 0.055	1 ± 0.044
UniProt O15169 and related entries	1.05 ± 0.015	1.047 ± 0.0037	1.03 ± 0.0043	1.038 ± 0.0093	1.018 ± 0.0018	1.032 ± 0.0081
ARPC3 (UniProt O15145)	0.957 ± 0.032	1.03 ± 0.03	0.946 ± 0.057	1.1 ± 0.17	1.09 ± 0.11	1.05 ± 0.06
POLRMT (UniProt O00411)	1.01 ± 0.018	1.01 ± 0.012	0.988 ± 0.015	0.89 ± 0.053	0.883 ± 0.011	0.879 ± 0.022
UniProt O00560 and related entries	0.978 ± 0.028	0.986 ± 0.017	1.04 ± 0.048	1.02 ± 0.028	1.04 ± 0.077	1.04 ± 0.069
UniProt O14686 and related entries	1.02 ± 0.051	1.11 ± 0.039	1.05 ± 0.035	0.995 ± 0.049	0.98 ± 0.045	1 ± 0.028
UniProt O15371 and related entries	1.04 ± 0.033	1.01 ± 0.091	1.1 ± 0.066	1.12 ± 0.083	1.2 ± 0.093	1.25 ± 0.15
UniProt O14773 and related entries	1.03 ± 0.047	0.981 ± 0.024	1.02 ± 0.082	1.06 ± 0.04	1.09 ± 0.061	1.05 ± 0.089
ZBTB24 (UniProt O43167)	1.02 ± 0.041	1.03 ± 0.075	1.03 ± 0.021	0.952 ± 0.038	0.975 ± 0.023	0.9505 ± 0.0035
GAK (UniProt O14976)	0.994 ± 0.015	0.973 ± 0.043	1.01 ± 0.037	1 ± 0.031	1.01 ± 0.037	0.996 ± 0.043

Target	NP40-soluble protein abundance (concentration: 1mM)	NP40-soluble protein abundance (concentration: 2mM)	NP40-soluble protein abundance (concentration: 4mM)	NP40-soluble protein abundance (concentration: 6mM)	NP40-soluble protein abundance (concentration: 8mM)	NP40-soluble protein abundance (concentration: 10mM)
UniProt O00463 and related entries	0.994 ± 0.055	0.984 ± 0.077	0.977 ± 0.049	0.951 ± 0.025	0.915 ± 0.051	0.914 ± 0.041
AP3B1 (UniProt O00203)	1.02 ± 0.033	0.997 ± 0.075	1.02 ± 0.06	1.06 ± 0.084	1.06 ± 0.053	1.11 ± 0.064
M0QZM1 and related entries (UniProt P52272)	1.01 ± 0.034	1.05 ± 0.037	1.04 ± 0.018	1.06 ± 0.055	1.06 ± 0.046	1.09 ± 0.037
UniProt O43399 and related entries	0.964 ± 0.049	1.06 ± 0.078	0.977 ± 0.053	0.942 ± 0.067	0.87 ± 0.012	0.949 ± 0.064
GTPBP1 (UniProt O00178)	1.03 ± 0.031	1.03 ± 0.028	1.07 ± 0.039	1.09 ± 0.016	1.09 ± 0.026	1.134 ± 0.01
K7ENL9 and related entries (UniProt Q96DM3)	0.952 ± 0.013	0.926 ± 0.08	0.943 ± 0.02	0.936 ± 0.032	0.936 ± 0.016	0.936 ± 0.042
M0R2A0 and related entries (UniProt Q5UCC4)	1.03 ± 0.034	0.991 ± 0.021	0.972 ± 0.027	1 ± 0.051	0.987 ± 0.062	1 ± 0.05
IGF2BP3 (UniProt O00425)	1.02 ± 0.014	0.985 ± 0.018	0.975 ± 0.031	0.934 ± 0.041	0.909 ± 0.054	0.889 ± 0.065
K7ESN3 and related entries (UniProt Q8N2G8)	1 ± 0.033	0.996 ± 0.041	0.989 ± 0.018	0.98 ± 0.025	0.988 ± 0.041	0.988 ± 0.018
M0QYM7 and related entries (UniProt P04350)	1.03 ± 0.015	0.9836 ± 0.0043	1.02 ± 0.027	1.06 ± 0.024	1.03 ± 0.033	1.05 ± 0.023
UniProt O00487	0.931 ± 0.027	0.881 ± 0.087	0.903 ± 0.053	0.874 ± 0.055	0.887 ± 0.079	0.873 ± 0.092
UniProt O15226 and related entries	1.025 ± 0.0057	1.02 ± 0.045	1 ± 0.032	0.988 ± 0.033	0.9706 ± 0.0089	1.023 ± 0.0077
K7ERT1 and related entries (UniProt O00273)	1.04 ± 0.043	1.01 ± 0.03	1.01 ± 0.072	0.984 ± 0.019	0.995 ± 0.065	0.969 ± 0.06
K7EPA3 and related entries (UniProt Q9NX61)	0.981 ± 0.025	0.931 ± 0.069	0.9135 ± 0.0037	0.952 ± 0.032	0.941 ± 0.029	0.922 ± 0.035
CDIPT (UniProt O14735)	0.928 ± 0.062	0.896 ± 0.042	1 ± 0.019	1.01 ± 0.088	1.03 ± 0.073	0.974 ± 0.039
M0R208 and related entries (UniProt Q16740)	1.04 ± 0.02	1.09 ± 0.057	1.04 ± 0.015	0.98 ± 0.018	0.973 ± 0.034	0.985 ± 0.017
UniProt O00716 and related entries	1.01 ± 0.021	1.05 ± 0.014	1.03 ± 0.023	1 ± 0.017	1.02 ± 0.035	1.04 ± 0.015
K7EKW4 and related entries (UniProt Q96AB3)	1 ± 0.074	0.96 ± 0.066	1.01 ± 0.088	1.06 ± 0.042	1.07 ± 0.052	1.03 ± 0.073
K7ENF0 and related entries (UniProt O43776)	0.972 ± 0.039	0.956 ± 0.061	0.949 ± 0.012	0.959 ± 0.053	0.949 ± 0.02	0.924 ± 0.044
HNRNPR (UniProt O43390)	1.02 ± 0.11	0.971 ± 0.15	0.973 ± 0.17	1 ± 0.17	1.07 ± 0.11	1.06 ± 0.14
